# Measured values taken from the supplement of paper PMC12823440, “Inhibitors supercharge kinase turnover through native proteolytic circuits” (Nature, 2025).
# The chains behind the UniProt entries cited, without tags or fusion partners. Where a name states a change or a piece, a line headed by the entry shows the natural chain unless it says otherwise.
# UniProt P51451: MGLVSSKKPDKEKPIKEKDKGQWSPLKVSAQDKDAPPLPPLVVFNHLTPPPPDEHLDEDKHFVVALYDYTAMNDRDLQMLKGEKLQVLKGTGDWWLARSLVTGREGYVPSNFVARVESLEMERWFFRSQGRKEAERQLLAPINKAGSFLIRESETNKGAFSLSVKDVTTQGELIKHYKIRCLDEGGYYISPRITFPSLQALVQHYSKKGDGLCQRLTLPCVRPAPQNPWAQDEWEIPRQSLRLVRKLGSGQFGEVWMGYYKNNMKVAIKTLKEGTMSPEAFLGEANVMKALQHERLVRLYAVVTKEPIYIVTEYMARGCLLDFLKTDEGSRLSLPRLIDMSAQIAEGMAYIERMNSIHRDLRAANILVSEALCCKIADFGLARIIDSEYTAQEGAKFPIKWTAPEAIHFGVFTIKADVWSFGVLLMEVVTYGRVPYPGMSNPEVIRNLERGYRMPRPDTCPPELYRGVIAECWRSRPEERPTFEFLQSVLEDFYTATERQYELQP
# Structures can show the parent of a compound that is named as a salt. The list shows a part of the results. Hit calls seldom repeat between salt and free forms of one compound.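 Kinases, fused to nanoluciferase, were expressed in K562 cells; luminescence was measured every 4 h from 2 to 18 h as percent of control (DMSO = 100%, positive control = 0%). A time point is decreased if signal falls significantly (2 sigma). Hits were called by the authors by a rule that is not shown; the count of time points alone does not decide it.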
# Target: BLK (UniProt P51451)
# Assay: number of time points (of 5) at which kinase-Nluc abundance scored as decreased, DMSO-normalised (count); higher = more persistent destabilization
# Settings: K562; 2-18 h
row,Structure (SMILES),number of time points
1,CC#CC(=O)N1CC[C@@H](n2c(=O)n(-c3ccc(Oc4ccccc4)cc3)c3c(N)ncnc32)C1 [Tirabrutinib (hydrochloride)] (10 µM),0
2,Cc1ccc(C(=O)Nc2ccc(Oc3cc4cnn(C)c4cc3-c3cn[nH]c3)c(F)c2)c(=O)n1-c1ccc(F)cc1 [Merestinib] (2.5 µM),0
3,Cc1cc(Nc2ncnc3ccc(NC4=NC(C)(C)CO4)cc23)ccc1Oc1ccn2ncnc2c1 [Tucatinib (hemiethanolate)] (2.5 µM),0
4,C[C@@]1(c2ncncc2F)NC(=O)c2cc(-c3cn[nH]c3)ccc21 (10 µM),0
5,COc1cc(Nc2ncc(F)c(Nc3ccc4c(n3)NC(=O)C(C)(C)O4)n2)cc(OC)c1OC (10 µM),0
6,Cc1cc2ncc(-c3ccc(O)c(O)c3)nc2cc1C [Tyrphostin AG1433] (10 µM),0
7,C=CC(=O)Nc1cccc(Nc2nc(Nc3ccc(N4CCN(C(C)=O)CC4)cc3OC)ncc2C(F)(F)F)c1 [Rociletinib hydrobromide] (10 µM),0
8,Cc1cc(Nc2ncnc3ccc(NC4=NC(C)(C)CO4)cc23)ccc1Oc1ccn2ncnc2c1 [Tucatinib] (2.5 µM),0
9,CCc1cc2c(cc1N1CCC(N3CCOCC3)CC1)C(C)(C)c1[nH]c3cc(C#N)ccc3c1C2=O [Alectinib (Hydrochloride)] (2 µM),0
10,Cn1nccc1Nc1nccc(-c2ccn([C@H](CO)c3ccc(Cl)c(F)c3)c(=O)c2)n1 [Ravoxertinib hydrochloride] (10 µM),0
11,COc1cc2c(N3CCN(C(=O)Nc4ccc(OC(C)C)cc4)CC3)ncnc2cc1OCCCN1CCCCC1 [Tandutinib] (10 µM),0
12,CC#CC(=O)N1CC[C@@H](n2c(=O)n(-c3ccc(Oc4ccccc4)cc3)c3c(N)ncnc32)C1 [Tirabrutinib] (10 µM),0
13,C=CC(=O)Nc1cccc(Nc2nc(Nc3ccc(N4CCN(C(C)=O)CC4)cc3OC)ncc2C(F)(F)F)c1 [Rociletinib] (10 µM),0
14,COc1cc(Nc2ncc(F)c(Nc3ccc4c(n3)N(COP(=O)(O)O)C(=O)C(C)(C)O4)n2)cc(OC)c1OC [Fostamatinib Disodium] (10 µM),0
15,COc1cc2c(N3CCN(C(=O)Nc4ccc(OC(C)C)cc4)CC3)ncnc2cc1OCCCN1CCCCC1 [Tandutinib (hydrochloride)] (10 µM),0
16,COc1cc(Nc2ncc(F)c(Nc3ccc4c(n3)N(COP(=O)(O)O)C(=O)C(C)(C)O4)n2)cc(OC)c1OC [Fostamatinib (disodium hexahydrate)] (10 µM),1
17,COc1cc2nccc(Oc3ccc(NC(=O)NC4CC4)c(Cl)c3)c2cc1C(N)=O [Lenvatinib (mesylate)] (10 µM),0
18,Oc1ccc(Nc2nc(-c3ccc(Cl)cc3)cs2)cc1 (10 µM),0

# An excerpt of these results, with tabs.
row	Structure (SMILES)	number of time points
9	CCc1cc2c(cc1N1CCC(N3CCOCC3)CC1)C(C)(C)c1[nH]c3cc(C#N)ccc3c1C2=O [Alectinib (Hydrochloride)] (2 µM)	0
10	Cn1nccc1Nc1nccc(-c2ccn([C@H](CO)c3ccc(Cl)c(F)c3)c(=O)c2)n1 [Ravoxertinib hydrochloride] (10 µM)	0

# Next entries.

row,Structure (SMILES),number of time points
1,NC(=O)c1nc(Nc2ccccc2)sc1NC(=O)C1CCCCC1 (10 µM),0
2,CC1=C(C(=O)O)N2C(=O)[C@@H](NC(=O)[C@H](N)C3=CCC=CC3)[C@H]2SC1 [Cephradine] (10 µM),0
3,Cc1ccc(C(=O)Nc2ccc(Oc3cc4cnn(C)c4cc3-c3cn[nH]c3)c(F)c2)c(=O)n1-c1ccc(F)cc1 [Merestinib dihydrochloride] (2.5 µM),0
4,Cc1ccc2nc(NCCN)c3ncc(C)n3c2c1 (2.5 µM),0
5,CC(=O)NC1CC(n2cnc(NC(=O)Cc3ccc4ccccc4c3)c2)C1 (stereo not given) (10 µM),0
6,COc1cc2nccc(Oc3ccc(NC(=O)NC4CC4)c(Cl)c3)c2cc1C(N)=O [Lenvatinib] (10 µM),0
7,Cn1cnc2c(F)c(Nc3ccc(Br)cc3Cl)c(C(=O)NOCCO)cc21 [Selumetinib (sulfate)] (10 µM),0
8,CCN1CCN(Cc2ccc(Nc3ncc(F)c(-c4cc(F)c5nc(C)n(C(C)C)c5c4)n3)nc2)CC1 [Abemaciclib] (2 µM),0
9,Cn1nccc1Nc1nccc(-c2ccn([C@H](CO)c3ccc(Cl)c(F)c3)c(=O)c2)n1 [Ravoxertinib] (10 µM),0
10,COc1cc(Nc2ncc(F)c(Nc3ccc4c(n3)NC(=O)C(C)(C)O4)n2)cc(OC)c1OC [R406 (free base)] (10 µM),0
11,S=C(SSC(=S)N1CCOCC1)N1CCOCC1 (10 µM),3
12,CC1CCc2c(cc(Br)c(F)c2Br)N1C=O (stereo not given) (10 µM),0
13,CCN1CCN(Cc2ccc(Nc3ncc(F)c(-c4cc(F)c5nc(C)n(C(C)C)c5c4)n3)nc2)CC1 [Abemaciclib (methanesulfonate)] (10 µM),0
14,Cn1cnc2c(F)c(Nc3ccc(Br)cc3Cl)c(C(=O)NOCCO)cc21 [Selumetinib] (10 µM),0
15,CCc1cc2c(cc1N1CCC(N3CCOCC3)CC1)C(C)(C)c1[nH]c3cc(C#N)ccc3c1C2=O [Alectinib] (10 µM),0
16,C=C(CC[C@@H](C(=O)O)[C@H]1[C@H](O)C[C@@]2(C)C3=C(CC[C@]12C)[C@@]1(C)CC[C@H](OC(C)=O)C(C)(C)[C@@H]1CC3)C(C)C [Pachymic acid] (10 µM),0
17,C=CC(=O)Nc1ccc(CN2C(=O)N(c3cc(OC)cc(OC)c3)Cc3cnc(Nc4ccc(N5CCN(C)CC5)cc4)nc32)cc1 (2.5 µM),5
